Laboratory results: publication PMC10980705
These are yes or no findings as the source states them, for the method shown. Some results given as binding are weak or reduced against the parent protein; the word gives no strength.

Target: T1, WT monomer peptide 295…311 of tau
T1 chain: DNIKHVPGGGSVQIVYK
Test: ThT fluorescence + TEM (fibril formation); 200 μM WT monomer seeded by 2 μM TL dimer; 1 x PBS, 25 μM ThT, 37C, shaking at 800 rpm 10 s before each reading, followed up to 144 h; fibrils called only with ThT signal change and fibrils in TEM; both purified
Conditions: remark: other sources report otherwise

B1: WT monomer peptide 295…311 of tau (peptide)
peptide: DNIKHVPGGGSVQIVYK
modifications: here or on the partner: N-terminal acetylation; C-terminal amidation; N-terminal acetylation; C-terminal amidation
Question: Which binding does the source give for B1 here?
Answer: binds
